In paper PMC9204951:
No constants are given. Whether binding was seen depends on the method and setting. In cells and extracts the contact can be indirect. These calls come from enrichment with a bait or labelling near it, and not all partners need be listed. A no says only that the protein was not detected with the bait. One block for each molecule: values may come before it.

Sequences of proteins named here, by UniProt entry; tags and fusion partners are left off.
UniProt P05627: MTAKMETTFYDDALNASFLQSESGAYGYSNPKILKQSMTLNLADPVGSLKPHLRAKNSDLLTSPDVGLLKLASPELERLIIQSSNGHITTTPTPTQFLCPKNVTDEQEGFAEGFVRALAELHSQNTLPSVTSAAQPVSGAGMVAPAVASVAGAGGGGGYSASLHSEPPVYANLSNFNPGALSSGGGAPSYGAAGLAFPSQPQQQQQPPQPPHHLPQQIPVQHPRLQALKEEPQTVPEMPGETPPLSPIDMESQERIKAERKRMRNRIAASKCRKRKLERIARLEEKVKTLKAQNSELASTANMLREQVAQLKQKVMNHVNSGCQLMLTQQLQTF
UniProt Q62280: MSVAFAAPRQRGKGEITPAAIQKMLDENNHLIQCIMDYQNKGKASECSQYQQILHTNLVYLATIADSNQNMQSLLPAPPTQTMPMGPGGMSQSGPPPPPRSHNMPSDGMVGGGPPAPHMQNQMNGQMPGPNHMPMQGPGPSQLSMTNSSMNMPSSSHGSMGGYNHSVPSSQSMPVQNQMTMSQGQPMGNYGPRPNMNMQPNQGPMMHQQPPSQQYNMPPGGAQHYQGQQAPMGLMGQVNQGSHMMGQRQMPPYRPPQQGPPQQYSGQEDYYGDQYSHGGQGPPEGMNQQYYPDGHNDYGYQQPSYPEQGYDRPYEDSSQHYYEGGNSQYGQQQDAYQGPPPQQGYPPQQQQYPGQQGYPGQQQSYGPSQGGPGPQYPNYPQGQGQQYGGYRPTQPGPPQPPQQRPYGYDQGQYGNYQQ
UniProt P28033: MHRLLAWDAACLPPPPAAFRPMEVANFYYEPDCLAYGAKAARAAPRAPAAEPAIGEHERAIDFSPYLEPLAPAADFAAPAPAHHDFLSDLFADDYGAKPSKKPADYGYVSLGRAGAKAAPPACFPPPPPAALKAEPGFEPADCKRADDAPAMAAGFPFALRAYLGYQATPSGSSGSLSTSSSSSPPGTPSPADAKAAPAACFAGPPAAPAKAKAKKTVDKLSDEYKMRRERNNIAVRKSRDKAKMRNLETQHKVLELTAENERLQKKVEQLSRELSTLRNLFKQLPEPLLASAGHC

Columns and labels:
JUN-Flag = JUN-Flag (UniProt P05627); experiment: affinity purification with mass spectrometry; IP with Flag antibody from JUN-Flag TetON mESCs after Dox for 0, 8 and 24 h; 8 h or 24 h compared with 0 h; label-free quantification, triplicate, thresholds P = 0.01 and fold change 2
[1] = target: SS18 (mouse (endogenous in mESCs)) (UniProt Q62280); experiment: affinity purification with mass spectrometry; endogenous SS18 IP (SS18 antibody against matched IgG) from 1 mg whole cell extract of Jun-Flag TetON mESCs after Dox for 0, 8 and 24 h; lysis buffer 50 mM Tris pH 8.0, 150 mM NaCl, 10% glycerol, 0.5% NP40; overnight 4 °C, Protein A/G magnetic beads, on-bead digestion; label-free quantification, triplicate

- binding (JUN-Flag): binds
- binding [1]: binds
Molecule: CEBPB (from UniProt P28033 1-296)

- binding (JUN-Flag): no binding
Molecule: SS18 (from UniProt Q62280 1-418)

- binding [1]: no binding
Molecule: JUN-Flag (from UniProt P05627 1-334)

- binding [1]: binds
B1: NANOG (protein, UniProt Q80Z64 1-305)
chain: MSVGLPGPHSLPSSEEASNSGNASSMPAVFHPENYSCLQGSATEMLCTEAASPRPSSEDLPLQGSPDSSTSPKQKLSSPEADKGPEEEENKVLARKQKMRTVFSQAQLCALKDRFQKQKYLSLQQMQELSSILNLSYKQVKTWFQNQRMKCKRWQKNQWLKTSNGLIQKGSAPVEYPSIHCSYPQGYLVNASGSLSMWGSQTWTNPTWSSQTWTNPTWNNQTWTNPTWSSQAWTAQSWNGQPWNAAPLHNFGEDFLQPYVQLQQNFSASDLEVNLEATRESHAHFSTPQALELFLNYSVTPPGEI

- binding (JUN-Flag): binds
- binding [1]: binds
B2: CEBPG (protein, UniProt P53568 1-150)
chain: MSKLSQPATTPGVNGISVIHTQAHASGLQQVPQLVPAGPGGGGKAVPPSKQSKKSSPMDRNSDEYRQRRERNNMAVKKSRLKSKQKAQDTLQRVNQLKEENERLEAKIKLLTKELSVLKDLFLEHAHSLADNVQPISTETTATNSDNPGQ

- binding (JUN-Flag): binds
- binding [1]: binds
B3: ZSAN4F (protein, UniProt Q3URS2 1-506)
chain: MASQQAPAKDLQTNNLEFTPTDSSGVQWAEDISNSPSAQLNFSPSNNGCWATQELQSLWKMFNSWLQPEKQTKEQMISQLVLEQFLLTGHCKDKYALTEKWKASGSDMRRFMESLTDECLKPPVMVHVSMQGQEALFSENMPLKEVIKLLKQQQSATRPTPDNEQMPVDTTQDRLLATGQENSENECNNSCNATEANVGESCSGNEMDSLLIMQKEQHPEHEEGNVVCQFPHGARRASQGTPSHHVDFPSAPTTADVPMEEQPKDLSRENISEDKNNCYNTSRNAATQVYSGDNIPRNKSDSLFINKRIYHPEPEVGDIPYGVPQDSTRASQGTSTCLQESLGECFSEKDPREVPGLQSRQEQLISDPVLLGKNHEANLPCESHQKRFCRDAKLYKCEECSRMFKHARSLSSHQRTHLNKKSELLCVTCQKMFKRVSDRRTHEIIHMPEKPFKCSTCEKSFSHKTNLKSHEMIHTGEMPYVCSLCSRRFRQSSTYHRHLRNYHRSD
